Laboratory results: PubChem BioAssay AID1224830 (NIAID, 2016)
Aim: 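Genes whose knock-down alters the TNF-alpha reporter response to LPS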 (primary screen). System: human THP-1 monocytic leukaemia cells, TNF dual-luciferase reporter clone, PMA-differentiated to macrophage-like cells. Knock-down reagent: siRNA pool against human genes, 50 nM. Time to read-out: LPS for 4 h, given about 3 days after siRNA transfection. Treatment: bacterial LPS (TLR4 ligand), 10 ng/ml. Measurement: 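TNF firefly reporter luminescence divided by renilla, normalised to the plate median, then turned into a robust z-score for each replicate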. Scale: TNF reporter robust z-score: higher = stronger TNF reporter response to LPS. Rule for the call: 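Each well counts as active if its z-score is over 2.8 or under -1.5; controls are left without a call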.
Here is one part, drawn at random, of about 18,000 reagents. Of all reagents, about 2,900 (16%) are marked active. 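Calls are made per well; low scores hint the gene aids the LPS response, high scores that it dampens it.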 Repeated entries: four replicate wells of each siRNA pool.

Target gene | TNF reporter robust z-score | call
SERPINA3 | -1.04 | inactive
SERPINA3 | -0.64 | inactive
SERPINA3 | -0.89 | inactive
SERPINA3 | 1.73 | inactive
RBL1 | -0.42 | inactive
RBL1 | -0.54 | inactive
RBL1 | -1.36 | inactive
RBL1 | 1.5 | inactive
HIVEP1 | 1.74 | inactive
HIVEP1 | 1 | inactive
HIVEP1 | 0.61 | inactive
HIVEP1 | 0.82 | inactive
DPYSL5 | 1.18 | inactive
DPYSL5 | 3.29 | active
DPYSL5 | 3.14 | active
DPYSL5 | 1.17 | inactive

Next part, starting with the last 2 of the part before.
Target gene | TNF reporter robust z-score | call
DPYSL5 | 3.14 | active
DPYSL5 | 1.17 | inactive
CASS4 | -0.25 | inactive
CASS4 | 0.43 | inactive
CASS4 | -0.02 | inactive
CASS4 | 1.06 | inactive
POU4F2 | 0.22 | inactive
POU4F2 | -0.08 | inactive
POU4F2 | -0.6 | inactive
POU4F2 | -0.5 | inactive
ZNF546 | 1.16 | inactive
ZNF546 | 0.05 | inactive
ZNF546 | 1.22 | inactive
ZNF546 | -1.07 | inactive
CPOX | -0.68 | inactive
CPOX | 0.18 | inactive
CPOX | 0.07 | inactive
CPOX | -0.31 | inactive
MAP3K7 | -1.31 | inactive
MAP3K7 | -1.95 | active
MAP3K7 | -1.62 | active
PPP6R1 | -0.05 | inactive
PPP6R1 | -0.21 | inactive
PPP6R1 | -0.24 | inactive
PPP6R1 | -0.47 | inactive
TAPT1 | -0.06 | inactive
TAPT1 | -0.22 | inactive
TAPT1 | -0.74 | inactive
TAPT1 | -0.18 | inactive
ADCY6 | 0.71 | inactive
ADCY6 | 0.03 | inactive
ADCY6 | 0.46 | inactive
ADCY6 | 0.96 | inactive
